For 2 substances, binding results are on record in PMC6175882.

Sequences of proteins named here, by UniProt entry; tags and fusion partners are left off.
UniProt Q12824: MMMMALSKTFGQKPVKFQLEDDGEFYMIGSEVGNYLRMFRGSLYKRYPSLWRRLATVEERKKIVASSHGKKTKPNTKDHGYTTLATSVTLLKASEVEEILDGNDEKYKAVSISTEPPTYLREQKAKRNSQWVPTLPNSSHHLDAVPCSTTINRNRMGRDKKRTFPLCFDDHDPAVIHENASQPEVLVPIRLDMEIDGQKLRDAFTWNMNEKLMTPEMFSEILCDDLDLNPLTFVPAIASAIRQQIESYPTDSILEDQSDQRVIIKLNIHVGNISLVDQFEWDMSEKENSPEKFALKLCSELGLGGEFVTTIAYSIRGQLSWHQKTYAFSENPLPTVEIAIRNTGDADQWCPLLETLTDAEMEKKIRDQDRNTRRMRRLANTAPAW
UniProt Q92922: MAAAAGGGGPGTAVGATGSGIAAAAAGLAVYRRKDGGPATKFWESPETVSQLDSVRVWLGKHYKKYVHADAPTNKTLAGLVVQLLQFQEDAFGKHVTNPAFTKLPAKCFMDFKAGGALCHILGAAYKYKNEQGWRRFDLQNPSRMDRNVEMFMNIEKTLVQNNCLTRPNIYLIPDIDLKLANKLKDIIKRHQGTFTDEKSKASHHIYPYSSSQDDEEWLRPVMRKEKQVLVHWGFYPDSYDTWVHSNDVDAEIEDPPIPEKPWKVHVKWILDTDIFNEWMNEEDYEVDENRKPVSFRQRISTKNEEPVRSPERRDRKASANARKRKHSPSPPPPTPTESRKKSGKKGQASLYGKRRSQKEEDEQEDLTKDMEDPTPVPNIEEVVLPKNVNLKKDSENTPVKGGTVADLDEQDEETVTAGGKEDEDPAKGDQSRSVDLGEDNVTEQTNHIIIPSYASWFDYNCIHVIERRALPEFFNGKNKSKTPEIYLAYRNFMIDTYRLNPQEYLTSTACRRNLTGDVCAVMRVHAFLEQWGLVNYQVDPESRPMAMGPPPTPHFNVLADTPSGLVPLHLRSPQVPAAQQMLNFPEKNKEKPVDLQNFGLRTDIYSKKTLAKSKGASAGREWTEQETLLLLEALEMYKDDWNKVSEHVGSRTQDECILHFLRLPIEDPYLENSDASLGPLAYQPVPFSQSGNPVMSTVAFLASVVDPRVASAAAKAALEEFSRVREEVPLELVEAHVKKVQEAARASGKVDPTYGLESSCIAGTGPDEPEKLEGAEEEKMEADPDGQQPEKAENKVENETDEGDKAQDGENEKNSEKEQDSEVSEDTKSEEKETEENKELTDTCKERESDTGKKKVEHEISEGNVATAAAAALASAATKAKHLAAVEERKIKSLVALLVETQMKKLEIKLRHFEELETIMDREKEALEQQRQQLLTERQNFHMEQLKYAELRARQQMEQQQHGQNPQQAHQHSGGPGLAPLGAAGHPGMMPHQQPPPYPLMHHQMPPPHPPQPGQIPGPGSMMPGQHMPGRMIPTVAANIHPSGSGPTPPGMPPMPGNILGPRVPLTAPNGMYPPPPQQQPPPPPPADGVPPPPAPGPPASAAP
UniProt P51532: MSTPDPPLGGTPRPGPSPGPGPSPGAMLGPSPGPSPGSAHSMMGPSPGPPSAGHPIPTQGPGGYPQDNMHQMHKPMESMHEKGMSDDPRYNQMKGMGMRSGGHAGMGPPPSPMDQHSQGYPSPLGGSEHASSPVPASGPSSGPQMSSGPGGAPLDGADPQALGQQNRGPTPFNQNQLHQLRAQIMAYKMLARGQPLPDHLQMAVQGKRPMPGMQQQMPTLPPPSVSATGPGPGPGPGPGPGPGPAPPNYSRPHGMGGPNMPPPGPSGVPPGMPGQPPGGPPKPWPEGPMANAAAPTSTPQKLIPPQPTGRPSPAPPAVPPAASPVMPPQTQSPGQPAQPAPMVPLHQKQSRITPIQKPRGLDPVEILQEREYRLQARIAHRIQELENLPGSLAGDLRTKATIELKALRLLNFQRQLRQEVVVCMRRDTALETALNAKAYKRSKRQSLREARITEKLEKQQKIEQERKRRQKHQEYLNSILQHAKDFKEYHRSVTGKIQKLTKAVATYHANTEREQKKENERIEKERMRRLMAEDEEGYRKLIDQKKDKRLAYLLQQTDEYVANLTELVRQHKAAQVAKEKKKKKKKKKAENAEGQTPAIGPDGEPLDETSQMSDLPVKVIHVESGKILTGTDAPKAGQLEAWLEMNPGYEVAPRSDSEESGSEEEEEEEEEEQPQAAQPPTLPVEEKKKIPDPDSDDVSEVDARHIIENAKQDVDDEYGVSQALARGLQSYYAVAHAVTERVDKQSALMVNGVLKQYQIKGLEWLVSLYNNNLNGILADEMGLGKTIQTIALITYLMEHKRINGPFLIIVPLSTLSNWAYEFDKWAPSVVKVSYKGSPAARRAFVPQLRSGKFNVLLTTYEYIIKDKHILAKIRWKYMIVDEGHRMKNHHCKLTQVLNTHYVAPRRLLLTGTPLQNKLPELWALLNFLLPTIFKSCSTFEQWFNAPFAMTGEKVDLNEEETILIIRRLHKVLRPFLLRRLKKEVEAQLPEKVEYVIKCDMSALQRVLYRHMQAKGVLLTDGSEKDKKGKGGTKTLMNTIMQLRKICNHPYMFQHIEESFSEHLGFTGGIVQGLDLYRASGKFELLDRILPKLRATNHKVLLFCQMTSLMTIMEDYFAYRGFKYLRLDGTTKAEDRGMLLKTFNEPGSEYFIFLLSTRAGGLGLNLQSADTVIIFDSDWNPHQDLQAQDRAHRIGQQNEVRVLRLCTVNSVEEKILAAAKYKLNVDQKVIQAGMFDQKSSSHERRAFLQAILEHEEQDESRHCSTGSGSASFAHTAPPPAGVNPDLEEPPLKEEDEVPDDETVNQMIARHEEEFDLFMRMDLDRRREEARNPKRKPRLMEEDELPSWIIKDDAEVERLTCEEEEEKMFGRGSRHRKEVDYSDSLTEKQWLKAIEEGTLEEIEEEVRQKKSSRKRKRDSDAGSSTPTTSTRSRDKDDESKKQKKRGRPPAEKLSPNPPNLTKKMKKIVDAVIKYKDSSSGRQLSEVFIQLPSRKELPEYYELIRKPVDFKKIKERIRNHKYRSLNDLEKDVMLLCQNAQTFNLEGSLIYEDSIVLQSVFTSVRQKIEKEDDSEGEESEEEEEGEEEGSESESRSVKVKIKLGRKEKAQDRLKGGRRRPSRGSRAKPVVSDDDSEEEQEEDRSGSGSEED
UniProt P51531: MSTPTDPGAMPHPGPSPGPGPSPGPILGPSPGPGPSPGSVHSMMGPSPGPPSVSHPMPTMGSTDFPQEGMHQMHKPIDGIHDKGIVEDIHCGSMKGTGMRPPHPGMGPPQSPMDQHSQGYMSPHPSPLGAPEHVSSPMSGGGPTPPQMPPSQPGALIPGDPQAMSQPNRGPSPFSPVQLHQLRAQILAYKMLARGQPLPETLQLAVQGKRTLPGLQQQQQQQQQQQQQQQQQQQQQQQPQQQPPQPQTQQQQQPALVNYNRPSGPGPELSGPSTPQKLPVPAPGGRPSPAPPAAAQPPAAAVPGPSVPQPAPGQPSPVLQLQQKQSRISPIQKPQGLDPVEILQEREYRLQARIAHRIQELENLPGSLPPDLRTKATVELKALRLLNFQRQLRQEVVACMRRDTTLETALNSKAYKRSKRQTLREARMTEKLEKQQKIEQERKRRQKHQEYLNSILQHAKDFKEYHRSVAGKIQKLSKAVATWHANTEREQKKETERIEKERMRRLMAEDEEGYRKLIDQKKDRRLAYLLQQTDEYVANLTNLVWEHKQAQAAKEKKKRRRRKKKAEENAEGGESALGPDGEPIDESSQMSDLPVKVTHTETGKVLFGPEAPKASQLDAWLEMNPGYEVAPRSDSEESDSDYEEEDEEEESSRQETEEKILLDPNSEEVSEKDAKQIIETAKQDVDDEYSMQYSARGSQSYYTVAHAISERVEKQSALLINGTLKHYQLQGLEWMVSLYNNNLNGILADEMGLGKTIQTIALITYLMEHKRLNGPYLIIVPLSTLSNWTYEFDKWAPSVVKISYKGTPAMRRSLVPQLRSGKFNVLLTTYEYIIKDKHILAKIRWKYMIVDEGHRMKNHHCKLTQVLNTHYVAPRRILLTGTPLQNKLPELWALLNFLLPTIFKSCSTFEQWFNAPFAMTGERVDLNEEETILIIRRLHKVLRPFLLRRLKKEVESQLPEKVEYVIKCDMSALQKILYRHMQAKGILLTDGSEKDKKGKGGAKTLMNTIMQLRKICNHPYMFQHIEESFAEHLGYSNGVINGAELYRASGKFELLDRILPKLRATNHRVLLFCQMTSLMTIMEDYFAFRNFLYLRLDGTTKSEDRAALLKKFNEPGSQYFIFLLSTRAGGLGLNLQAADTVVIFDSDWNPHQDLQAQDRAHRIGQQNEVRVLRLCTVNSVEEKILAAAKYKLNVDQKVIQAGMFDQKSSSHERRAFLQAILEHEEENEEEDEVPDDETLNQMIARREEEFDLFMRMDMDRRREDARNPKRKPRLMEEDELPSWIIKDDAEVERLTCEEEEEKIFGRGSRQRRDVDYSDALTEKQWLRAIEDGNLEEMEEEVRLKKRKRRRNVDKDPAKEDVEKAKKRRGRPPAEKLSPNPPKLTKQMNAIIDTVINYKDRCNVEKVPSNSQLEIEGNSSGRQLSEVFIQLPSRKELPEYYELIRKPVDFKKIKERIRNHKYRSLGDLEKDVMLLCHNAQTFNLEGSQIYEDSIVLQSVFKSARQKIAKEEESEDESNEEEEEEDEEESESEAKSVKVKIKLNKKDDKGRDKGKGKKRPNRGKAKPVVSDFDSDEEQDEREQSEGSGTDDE

In experiment [1] the target is SMARCB1 (human (endogenous in TOV21G)) (UniProt Q12824). The experiment is described as follows: co-IP; endogenous proteins; antibodies to SMARCC1 (BAF155) or SMARCB1 (SNF5), isotype-matched IgG as control; nuclear fractions of parental and resistant TOV21G cells, and of TOV21G cells with or without SMARCA4 knockdown; immunoblot. Background: In western blotting, separated proteins are transferred to a membrane and probed.

Experiment [2] deals with SMARCC1 (human (endogenous in TOV21G)) (UniProt Q92922). Described as above.

These are yes or no findings as the source states them, for the method shown. In cells and extracts the contact can be indirect. Some results given as binding are weak or reduced against the parent protein; the word gives no strength.

As to SMARCA4 (from UniProt P51532 1-1647), the binding result in experiment [1] is listed as “binds”.

For SMARCA2 (from UniProt P51531 1-1590), the binding result in experiment [2] is listed as “binds”.
